Data taken from paper PMC9010173.

How the values were obtained:
Test in all cases: co-IP; cell lysates immunoprecipitated by IgG or anti-NEIL1, NEIL2, MUTYH, APE1 and LIG3 antibodies, then immunoblotted with anti-Sirt3 antibody
[1] = molecular target: T1, DNA ligase 3 (LIG3) (human (endogenous in HT-29)) (UniProt P49916)
T1 sequence: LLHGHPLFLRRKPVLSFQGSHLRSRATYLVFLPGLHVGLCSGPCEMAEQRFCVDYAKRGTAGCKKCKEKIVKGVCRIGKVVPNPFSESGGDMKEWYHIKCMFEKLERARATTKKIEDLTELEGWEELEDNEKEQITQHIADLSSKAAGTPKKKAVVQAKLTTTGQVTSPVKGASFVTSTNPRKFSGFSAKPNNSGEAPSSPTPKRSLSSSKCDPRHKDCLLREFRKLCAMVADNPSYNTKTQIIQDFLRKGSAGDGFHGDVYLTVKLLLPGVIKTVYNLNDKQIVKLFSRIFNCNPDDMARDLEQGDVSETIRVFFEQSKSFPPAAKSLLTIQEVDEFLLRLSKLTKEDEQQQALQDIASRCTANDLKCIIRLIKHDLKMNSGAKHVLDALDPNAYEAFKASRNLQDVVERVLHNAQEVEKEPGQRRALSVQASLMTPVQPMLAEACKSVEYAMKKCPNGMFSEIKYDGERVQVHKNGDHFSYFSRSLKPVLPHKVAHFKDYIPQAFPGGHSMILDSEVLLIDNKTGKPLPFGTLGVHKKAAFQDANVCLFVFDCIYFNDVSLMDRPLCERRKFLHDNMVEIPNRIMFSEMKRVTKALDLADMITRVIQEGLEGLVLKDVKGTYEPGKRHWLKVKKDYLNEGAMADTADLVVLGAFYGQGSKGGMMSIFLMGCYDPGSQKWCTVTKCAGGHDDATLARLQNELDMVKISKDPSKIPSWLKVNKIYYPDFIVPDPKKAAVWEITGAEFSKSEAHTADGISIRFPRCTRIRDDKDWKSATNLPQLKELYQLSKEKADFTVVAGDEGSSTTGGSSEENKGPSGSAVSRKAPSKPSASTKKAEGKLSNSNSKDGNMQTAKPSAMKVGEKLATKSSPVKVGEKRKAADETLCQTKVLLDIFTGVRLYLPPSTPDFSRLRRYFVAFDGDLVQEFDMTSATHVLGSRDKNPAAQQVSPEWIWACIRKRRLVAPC

[2] = molecular target: T2, mutY DNA glycosylase (MUTYH) (human (endogenous in HT-29)) (UniProt Q9UIF7)
T2 sequence: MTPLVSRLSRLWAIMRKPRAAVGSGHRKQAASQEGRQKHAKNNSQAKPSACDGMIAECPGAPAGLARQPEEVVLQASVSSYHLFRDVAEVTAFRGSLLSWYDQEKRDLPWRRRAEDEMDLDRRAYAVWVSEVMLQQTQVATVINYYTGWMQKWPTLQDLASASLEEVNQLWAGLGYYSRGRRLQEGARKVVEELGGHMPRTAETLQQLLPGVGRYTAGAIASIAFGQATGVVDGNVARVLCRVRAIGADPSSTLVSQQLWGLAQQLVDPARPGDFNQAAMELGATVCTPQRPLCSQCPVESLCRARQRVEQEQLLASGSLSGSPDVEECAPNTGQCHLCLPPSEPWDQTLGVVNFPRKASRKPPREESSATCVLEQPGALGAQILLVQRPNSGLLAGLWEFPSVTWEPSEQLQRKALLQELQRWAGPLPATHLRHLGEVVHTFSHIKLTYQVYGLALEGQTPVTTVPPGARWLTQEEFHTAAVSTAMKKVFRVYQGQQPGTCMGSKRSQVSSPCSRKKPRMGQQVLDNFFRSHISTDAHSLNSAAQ

[3] = molecular target: T3, Endonuclease VIII-like 2 (NEIL2) (human (endogenous in HT-29)) (UniProt Q969S2)
T3 sequence: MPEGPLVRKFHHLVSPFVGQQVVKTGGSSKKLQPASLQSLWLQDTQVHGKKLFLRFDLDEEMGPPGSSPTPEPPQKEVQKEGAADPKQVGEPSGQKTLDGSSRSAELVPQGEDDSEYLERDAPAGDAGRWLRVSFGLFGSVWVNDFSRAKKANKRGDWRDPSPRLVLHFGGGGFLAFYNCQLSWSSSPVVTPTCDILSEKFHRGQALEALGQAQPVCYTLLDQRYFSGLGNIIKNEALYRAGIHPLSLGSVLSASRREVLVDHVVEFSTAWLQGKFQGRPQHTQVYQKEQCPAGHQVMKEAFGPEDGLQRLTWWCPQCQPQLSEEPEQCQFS

Question: “Sirt3 (human (endogenous in HT-29)) (enzyme)” was tested. Which binding [1] did it give?
Answer: Its binding is “no binding”.

Question: And the binding [2]?
Answer: Its binding is “binds”.

Question: What about the binding [3] of the same substance?
Answer: The binding was “no binding”.

Results are given in words; binding and its absence hold for the method and conditions named. In cells and extracts the contact can be indirect. For part of these data: Binding calls can cover weak binding; strength is not graded here.
